Measurements taken from doi:10.1101/2021.11.29.470395.
Where two headings read alike, the source gives them in different places. These are yes or no findings as the source states them, for the method shown. Some results given as binding are weak or reduced against the parent protein; the word gives no strength.

Legend:
[1] = molecular target: nucleotide-devoid, full-length FtsZ from M. jannaschii (Methanocaldococcus jannaschii) (UniProt Q57816); test: right angle light scattering at 350 nm
[2] = molecular target: nucleotide-devoid, full-length FtsZ from M. jannaschii (Methanocaldococcus jannaschii) (UniProt Q57816); test: right angle light scattering at 350 nm; remark: listed apart in the source

B1: nucleotide-devoid, full-length FtsZ from M. jannaschii (protein, UniProt Q57816 1-364)
chain: MKFLKNVLEEGSKLEEFNELELSPEDKELLEYLQQTKAKITVVGCGGAGNNTITRLKMEGIEGAKTVAINTDAQQLIRTKADKKILIGKKLTRGLGAGGNPKIGEEAAKESAEEIKAAIQDSDMVFITCGLGGGTGTGSAPVVAEISKKIGALTVAVVTLPFVMEGKVRMKNAMEGLERLKQHTDTLVVIPNEKLFEIVPNMPLKLAFKVADEVLINAVKGLVELITKDGLINVDFADVKAVMNNGGLAMIGIGESDSEKRAKEAVSMALNSPLLDVDIDGATGALIHVMGPEDLTLEEAREVVATVSSRLDPNATIIWGATIDENLENTVRVLLVITGVQSRIEFTDTGLKRKKLELTGIPKI
In the case of B1, the binding [1] is reported as “binds” and the binding [2] is reported as “no binding (condition: with 20 mM EDTA)”.
